{
  "source": "patent US20260265396A1",
  "binders": {"B1": {"name": "h26D3 Fab (humanized 26D3) (Fab, V domains shown)", "VH": "EVQLVQSGAEVKKPGSSVKVSCKASGYIFTDYNMDWVRQAPGQGLEWIGDINPDYDTTSYNEKFKGRATLTVDKSTSTAYMELSSLRSEDTAVYYCARGGYSGSSYYHPMDYWGQGTLVTVSS", "VL": "DIQMTQSPSSVSASVGDRVTITCKSSQSLLYSTNQKNYLAWYQQKPGKAPKLLIYWASTRESGVPSRFSGSGSGTDFTLTISSLQPEDFATYYCQQYFIYPRTFGQGTKVEIK"}, "B2": {"name": "h26D3-HC10/LC5 (Fab, V domains shown)", "VH": "B1 VH with Y106A", "VL": "B1 VL with Y97A"}, "B3": {"name": "h26D3-HC10/LC1 (Fab, V domains shown)", "VH": "B1 VH with Y106A", "VL": "B1 VL with Y31A"}, "B4": {"name": "h26D3 variant HC10 Fab (VH Y106A) (Fab, V domains shown)", "VH": "B1 VH with Y106A", "VL": "B1 VL"}, "B5": {"name": "h26D3 variant HC11 Fab (VH Y107A) (Fab, V domains shown)", "VH": "B1 VH with Y107A", "VL": "B1 VL"}, "B6": {"name": "h26D3 variant HC3 Fab (VH D35A) (Fab, V domains shown)", "VH": "B1 VH with D35A", "VL": "B1 VL"}, "B7": {"name": "h26D3 variant LC1 Fab (VL Y31A) (Fab, V domains shown)", "VH": "B1 VH", "VL": "B1 VL with Y31A"}, "B8": {"name": "h26D3 variant HC6 Fab (VH Y55A) (Fab, V domains shown)", "VH": "B1 VH with Y55A", "VL": "B1 VL"}, "B9": {"name": "h26D3-HC6/LC5 (Fab, V domains shown)", "VH": "B1 VH with Y55A", "VL": "B1 VL with Y97A"}, "B10": {"name": "h26D3 variant LC5 Fab (VL Y97A) (Fab, V domains shown)", "VH": "B1 VH", "VL": "B1 VL with Y97A"}, "B11": {"name": "26D3-Fab (murine) (Fab, V domains shown)", "VH": "EVQLQQFGVELVKPGASVKISCKASGYIFTDYNMDWVKQSHGKSLEWIGDINPDYDTTSYNEKFKGKATLTVDKSSSTAYMELRSLTSEDTAVYYCARGGYSGSSYYHPMDYWGQGTSVTVSS", "VL": "DIVMSQSPSSLAVSVGEKITMSCKSSQSLLYSTNQKNYLAWYQQKPGQSPELLIYWASTRESGVPDRFTGSGSGTDFTLTISNVRAEDLAVYYCQQYFIYPRTFGGGTKLEIK"}, "B12": {"name": "mouse monoclonal antibody 26D3 (antibody, mouse IgG2a, V domains shown)", "VH": "B11 VH", "VL": "B11 VL"}},
  "key": {"[1]": {"biological_target": "cynomolgus TfR1, construct not stated (cynomolgus)", "test": "indirect ELISA, plate coated with cTfR1, Fab dilution series, anti-human IgG F(ab')2-HRP [upper right panel cTfR1]"}, "[2]": {"biological_target": "human TfR1, recombinant, construct not stated for the experiment (human) (UniProt P02786)", "test": "indirect ELISA, plate coated with 1 ug/ml recombinant hTfR1 ectodomain, Fab 1:3 dilution series, anti-human IgG F(ab')2-HRP [lower panel hTfR1]"}, "[3]": {"biological_target": "cynomolgus TfR1, construct not stated (cynomolgus)", "test": "BLI, cTfR1 captured on biotinylated holo-transferrin, 15 nM Fab"}, "[4]": {"biological_target": "cynomolgus TfR1, construct not stated (cynomolgus)", "test": "BLI (Octet), 15 nM Fab on cTfR1 captured by biotinylated human holo-transferrin on streptavidin sensors [panel mouse 26D3-Fab, cTfR1]"}, "[5]": {"biological_target": "cynomolgus TfR1, construct not stated (cynomolgus)", "test": "ELISA, hybridoma supernatant"}, "[6]": {"biological_target": "chimeric TfR1 consisting of human protease like domain grafted on mouse TfR1 ectodomain (SEQ ID NO:59) (human/mouse chimera)", "test": "indirect ELISA (legend of FIG. 7)"}, "[7]": {"biological_target": "chimeric TfR1 consisting of human protease like domain grafted on mouse TfR1 ectodomain (SEQ ID NO:59) (human/mouse chimera)", "test": "indirect ELISA, antigen coated at 1 µg/ml, mouse IgG"}, "[8]": {"biological_target": "cynomolgus TfR1, construct not stated (cynomolgus)", "test": "BLI, IgG captured from hybridoma supernatant, 250 nM cTfR1"}, "[9]": {"biological_target": "cynomolgus TfR1, construct not stated (cynomolgus)", "test": "BLI (Octet), IgG captured from crude hybridoma supernatant on anti-mouse sensors, 250 nM cTfR1 in solution"}, "[10]": {"biological_target": "chimeric TfR1 consisting of human protease like domain grafted on mouse TfR1 ectodomain (SEQ ID NO:59) (human/mouse chimera)", "test": "indirect ELISA, plate coated with 1 ug/ml h/m protease-like domain chimera, mouse IgG dilution series (axis labelled TfR (ng/ml)) [D]"}},
  "note": "Positions count from the first letter of the chain named. Names may count otherwise. No constants are given. Whether binding was seen depends on the method and setting. Some results given as binding are weak or reduced against the parent protein; the word gives no strength.",
  "data": [
    {"binder": "B1", "values": [
      {"measurement": "binding", "setting": "[1]", "value": "binds"}
    ]},
    {"binder": "B2", "values": [
      {"measurement": "binding", "setting": "[2]", "value": "binds"}
    ]},
    {"binder": "B3", "values": [
      {"measurement": "binding", "setting": "[2]", "value": "binds"}
    ]},
    {"binder": "B4", "values": [
      {"measurement": "binding", "setting": "[2]", "value": "binds"}
    ]},
    {"binder": "B5", "values": [
      {"measurement": "binding", "setting": "[2]", "value": "binds"}
    ]},
    {"binder": "B6", "values": [
      {"measurement": "binding", "setting": "[1]", "value": "binds"}
    ]},
    {"binder": "B7", "values": [
      {"measurement": "binding", "setting": "[1]", "value": "binds"}
    ]},
    {"binder": "B8", "values": [
      {"measurement": "binding", "setting": "[1]", "value": "binds"}
    ]},
    {"binder": "B9", "values": [
      {"measurement": "binding", "setting": "[1]", "value": "binds"}
    ]},
    {"binder": "B10", "values": [
      {"measurement": "binding", "setting": "[1]", "value": "binds"}
    ]},
    {"binder": "B11", "values": [
      {"measurement": "binding", "setting": "[3]", "value": "binds"},
      {"measurement": "binding", "setting": "[4]", "value": "binds"}
    ]},
    {"binder": "B12", "values": [
      {"measurement": "binding", "setting": "[5]", "value": "binds"},
      {"measurement": "binding", "setting": "[6]", "value": "binds"},
      {"measurement": "binding", "setting": "[7]", "value": "binds"},
      {"measurement": "binding", "setting": "[8]", "value": "binds"},
      {"measurement": "binding", "setting": "[9]", "value": "binds"},
      {"measurement": "binding", "setting": "[10]", "value": "binds"}
    ]}
  ]
}
